Results published in US20180298056 (published 2018).

Assay: general procedure: solution-phase peptide synthesis; pentafluorophenyl active ester, triethylamine

(2S)—N—((S)-1-((S)-4-methyl-1-((R)-2-methyloxiran-2-yl)-1-oxopentan-2-ylcarbamoyl)-2-phenylethyl)-2-((S)-2-(2-morpholinoacetamido)-4-phenyl butanamido)-4-methylpentanamide
99.9%: final HPLC purity (coupling step) | final HPLC purity (purification step) | purity (crude or final not stated) (purification step, HPLC)
